Measured data: PubChem BioAssay AID504804 (Drosophila RNAi Screening Center, 2011)

- Test: 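Fly genes whose loss lessens doxorubicin-driven cell death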 (primary screen)
- System: Drosophila Kc cells
- Reagent: long dsRNA against Drosophila genes, 0.5 µg dsRNA per well
- Timing: 96 h (48 h knock-down, then 48 h drug)
- Treatment: doxorubicin 5 µg/ml for 48 h, added 48 h after dsRNA
- Measurement: 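Viability measured as cellular ATP by luminescence after 48 h knock-down then 48 h doxorubicin at 5 µg/ml; unnormalised plate counts for each replicate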
- Reading the numbers: raw ATP luminescence: higher = more viable cells, protection from doxorubicin
- Hit rule: 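z-score of 2 or more over plate mean in both duplicates, retained only when retests and separate dsRNAs confirm the protection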
The screen tested about 19,000 reagents; below is a random part of those that have a named target and a result. Over the whole deposit, 47 (0.25%) were called active. 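Signals are raw, not normalised; exact z-scores behind calls not deposited; actives needed confirmation, so some wells reaching 2 SD are inactive.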 A plus sign joins genes that one reagent is predicted to hit. No sequences are given here.

gene | amplicon | raw ATP luminescence, replicate 1 | raw ATP luminescence, replicate 2 | Call
msopa (male-specific opa containing gene) | DRSC11895 | 30180 | 30467 | inactive
bocks (bocksbeutel) | DRSC16489 | 42147 | 31660 | inactive
GstE13 (Glutathione S transferase E13) | DRSC06083 | 75483 | 78360 | inactive
Rbp (RIM-binding protein) | DRSC15724 | 42250 | 36280 | inactive
Rbp (RIM-binding protein) | DRSC15726 | 84900 | 50620 | inactive
CG3419 (retired record) | DRSC04368 | 44797 | 50633 | inactive
CG3419 (retired record) | DRSC04369 | 49303 | 48160 | inactive
aqrs (aquarius) | DRSC14724 | 50580 | 30050 | inactive
Pngl (PNGase-like) | DRSC04914 | 50563 | 50673 | inactive
CG9706 | DRSC11095 | 23623 | 21933 | inactive
CG14767 | DRSC06500 | 52257 | 49553 | inactive
Rpi (Ribose-5-phosphate isomerase) | DRSC04583 | 63530 | 47223 | inactive
Gr33a (Gustatory receptor 33a) | DRSC02589 | 76553 | 77227 | inactive
CG5882 | DRSC15907 | 56780 | 43290 | inactive
Wdr81 (WD repeat domain 81) | DRSC02985 | 74167 | 58393 | inactive
Calr (Calreticulin) | DRSC16614 | 54883 | 51027 | inactive
CG17030 | DRSC08503 | 82407 | 80890 | inactive
CG14646 | DRSC12232 | 17033 | 21840 | inactive
blo (bloated) | DRSC05937 | 43077 | 39663 | inactive
CG5346 | DRSC15778 | 19630 | 18130 | inactive
Cep135 (Centrosomal protein 135kDa) | DRSC09345 | 68513 | 75023 | inactive
Cep135 (Centrosomal protein 135kDa) | DRSC10244 | 44697 | 34730 | inactive
Mur11Da (Mucin related 11Da) | DRSC18960 | 2.28e5 | 2.38e5 | inactive
mr (morula) | DRSC04332 | 84247 | 60293 | inactive
Rlb1 | DRSC16826 | 53397 | 49910 | inactive
Obp8a (Odorant-binding protein 8a) | DRSC17868 | 3.23e5 | 3.40e5 | inactive
CG3198 | DRSC18292 | 44200 | 50710 | inactive
side-III (sidestep III) | DRSC12155 | 53270 | 64057 | inactive
side-III (sidestep III) | DRSC12263 | 45117 | 38347 | inactive
side-III (sidestep III) | DRSC12264 | 48597 | 64363 | inactive
Jon25Biii (Jonah 25Biii) | DRSC03115 | 23940 | 27227 | inactive
PGAP3 (Post-GPI attachment to proteins 3) | DRSC04989 | 70547 | 66183 | inactive
CG42534 | DRSC14722 | 30170 | 31250 | inactive
CG42534 | DRSC14759 | 22410 | 19520 | inactive
CG42534 | DRSC16072 | 63150 | 52610 | inactive
Hr96 (Hormone receptor-like in 96) | DRSC16707 | 39103 | 48923 | inactive

Continued (8 carried over from the part before).
gene | amplicon | raw ATP luminescence, replicate 1 | raw ATP luminescence, replicate 2 | Call
side-III (sidestep III) | DRSC12263 | 45117 | 38347 | inactive
side-III (sidestep III) | DRSC12264 | 48597 | 64363 | inactive
Jon25Biii (Jonah 25Biii) | DRSC03115 | 23940 | 27227 | inactive
PGAP3 (Post-GPI attachment to proteins 3) | DRSC04989 | 70547 | 66183 | inactive
CG42534 | DRSC14722 | 30170 | 31250 | inactive
CG42534 | DRSC14759 | 22410 | 19520 | inactive
CG42534 | DRSC16072 | 63150 | 52610 | inactive
Hr96 (Hormone receptor-like in 96) | DRSC16707 | 39103 | 48923 | inactive
Hpr1 | DRSC12296 | 52383 | 31573 | inactive
CG12104 | DRSC08254 | 47160 | 58630 | inactive
raptor | DRSC18359 | 49520 | 50450 | inactive
Git (G protein-coupled receptor kinase interacting ArfGAP) | DRSC06620 | 57597 | 58040 | inactive
CG18649 | DRSC10334 | 82923 | 52480 | inactive
MTA1-like (Metastasis associated 1-like) | DRSC12382 | 52023 | 41807 | inactive
Spag1 (Spag1 axonemal dynein assembly factor) | DRSC15331 | 57110 | 43050 | inactive
CG9346 | DRSC04542 | 79260 | 61767 | inactive
CG13048 | DRSC09929 | 48003 | 39177 | inactive
CG34283 | DRSC13313 | 1.95e5 | 1.95e5 | inactive
RunxB (Runt related B) | DRSC20395 | 1.78e5 | 1.96e5 | inactive
RunxB (Runt related B) | DRSC20525 | 3.41e5 | 3.19e5 | inactive
RunxB (Runt related B) | DRSC20526 | 1.41e5 | 1.01e5 | inactive
CG4896 | DRSC00671 | 98730 | 71890 | inactive
RNaseZ (Ribonuclease Z) | DRSC06845 | 67397 | 84393 | inactive
CG6006 | DRSC13137 | 1.63e5 | 1.54e5 | inactive
CG6006 | DRSC15946 | 47420 | 42393 | inactive
CG15535 | DRSC15071 | 39650 | 41390 | inactive
TAF1C-like | DRSC04073 | 90023 | 63717 | inactive
Prat2 (Phosphoribosylamidotransferase 2) | DRSC09692 | 46993 | 37537 | inactive
Ir60b (Ionotropic receptor 60b) | DRSC04217 | 54383 | 51210 | inactive
PIG-F (Phosphatidylinositol glycan anchor biosynthesis class F) | DRSC11069 | 70127 | 74573 | inactive
CG12289 | DRSC09874 | 70120 | 56583 | inactive
CG13454 | DRSC10001 | 1.79e5 | 1.97e5 | inactive
RacGAP84C (Rac GTPase activating protein at 84C) | DRSC12630 | 66177 | 58903 | inactive
Miga (Mitoguardin) | DRSC17821 | 30820 | 35830 | inactive
Spf45 | DRSC03826 | 66813 | 70023 | inactive
Naam (Nicotinamide amidase) | DRSC16252 | 71100 | 56810 | inactive
CG34136 | DRSC01833 | 58427 | 52317 | inactive
CecA2 (Cecropin A2) | DRSC16604 | 30710 | 34390 | inactive
Ide (Insulin degrading metalloproteinase) | DRSC11867 | 25347 | 17500 | inactive
so (sine oculis) | DRSC07693 | 53920 | 64853 | inactive
CG31109 | DRSC14648 | 70630 | 58100 | inactive
Schip1 (Schwannomin interacting protein 1) | DRSC02851 | 37610 | 74807 | inactive
CR18228 (pseudo) | DRSC15317 | 57257 | 58680 | inactive
f (forked) | DRSC19174 | 1.83e5 | 1.82e5 | inactive
f (forked) | DRSC19516 | 2.19e5 | 2.36e5 | inactive
f (forked) | DRSC20331 | 2.37e5 | 2.44e5 | inactive
qless | DRSC15103 | 54390 | 44410 | inactive
qless | DRSC15507 | 51740 | 69970 | inactive
CG12826 | DRSC06175 | 49053 | 78267 | inactive
RpL24 (Ribosomal protein L24) | DRSC03185 | 49883 | 47737 | inactive
Gr32a (Gustatory receptor 32a) | DRSC02400 | 50817 | 80920 | inactive
HGTX | DRSC09319 | 76050 | 84437 | inactive
HGTX | DRSC11181 | 71063 | 66467 | inactive
CG31007 | DRSC14029 | 1.39e5 | 1.47e5 | inactive
park + Targ3 | DRSC11617 | 22333 | 24233 | inactive
beat-IV (beaten path IV) | DRSC14195 | 35427 | 23447 | inactive
beat-IV (beaten path IV) | DRSC14673 | 66400 | 74540 | inactive
mRpS25 (mitochondrial ribosomal protein S25) | DRSC19598 | 3.32e5 | 3.28e5 | inactive
CG12375 | DRSC02163 | 99483 | 71393 | inactive
CG13051 | DRSC09932 | 42267 | 38010 | inactive
Or65b (Odorant receptor 65b) | DRSC08809 | 1.12e5 | 1.42e5 | inactive
CG31473 | DRSC15443 | 61003 | 78803 | inactive
Fpgs2 (Folylpolyglutamate synthase 2) | DRSC00600 | 32950 | 32663 | inactive
COX6AL2 + Ir75d | DRSC10081 | 53920 | 61317 | inactive
CG17490 | DRSC03794 | 62380 | 56200 | inactive
CG17490 | DRSC03797 | 62493 | 55533 | inactive
CG17917 | DRSC12570 | 54960 | 48450 | inactive
cyc (cycle) | DRSC11337 | 56507 | 51267 | inactive
CG30026 | DRSC05276 | 68887 | 88397 | inactive
CG11226 | DRSC11639 | 68583 | 57263 | inactive
Spn28B (Serpin 28B) | DRSC02982 | 24587 | 22520 | inactive
CG14743 | DRSC06479 | 39207 | 74347 | inactive
Pgant8 (Polypeptide N-Acetylgalactosaminyltransferase 8) | DRSC10801 | 64070 | 57717 | inactive
Sec61alpha (Sec61 alpha subunit) | DRSC03256 | 1.18e5 | 77857 | inactive
ATP8B (ATPase 8B) | DRSC14961 | 34877 | 52100 | inactive
Sk2 (Sphingosine kinase 2) | DRSC08556 | 44570 | 40050 | inactive
ced-6 | DRSC07591 | 42280 | 73383 | inactive
Pdf (Pigment-dispersing factor) | DRSC16786 | 1.82e5 | 2.14e5 | inactive
Cpr49Ab (Cuticular protein 49Ab) | DRSC05341 | 84963 | 96567 | inactive
